Results taken from the supplement of paper PMC7661543.
The effect of the compound repeats well; differences between the knockouts mostly do not.

Tested on: MDA-MB-231
Test: relative cell number vs DMSO control (72 h) (% of DMSO); higher = less growth inhibition (more cells)
Procedure: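 QMAP-Seq: a pool of 5 breast cancer cell lines (ZR-75-1, SKBR3, HCC-38, MDA-MB-231, BT-20), each carrying 12 doxycycline-inducible Cas9 sgRNA perturbations (11 knockouts plus non-targeting sgNT), was treated with compounds for 72 h at four 10-fold doses (10 nM-10 uM or 1 nM-1 uM range). Barcodes were amplified and sequenced, and cell number was interpolated from 293T spike-in standard curves. The result is expressed as % of the median of DMSO wells. Two biological replicates.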

C=CCc1cccc(/C=N/NC(=O)CN2CCN(Cc3ccccc3)CC2)c1O [PAC1]
Conditions	relative cell number
sgRNA knockout: sgATF3, 10 nM	81.2
sgRNA knockout: sgATF3, 100 nM	69.6
sgRNA knockout: sgATF3, 1000 nM	82.7
sgRNA knockout: sgATF3, 10000 nM	27.2
sgRNA knockout: sgATF4, 10 nM	82.3
sgRNA knockout: sgATF4, 100 nM	104
sgRNA knockout: sgATF4, 1000 nM	77.3
sgRNA knockout: sgATF4, 10000 nM	18.6
sgRNA knockout: sgATF6, 10 nM	96.1
sgRNA knockout: sgATF6, 100 nM	99.5
sgRNA knockout: sgATF6, 1000 nM	98.1
sgRNA knockout: sgATF6, 10000 nM	30.1
sgRNA knockout: sgATG7, 10 nM	84.2
sgRNA knockout: sgATG7, 100 nM	85.3
sgRNA knockout: sgATG7, 1000 nM	79.2
sgRNA knockout: sgATG7, 10000 nM	26.6
sgRNA knockout: sgERN1, 10 nM	106
sgRNA knockout: sgERN1, 100 nM	133
sgRNA knockout: sgERN1, 1000 nM	85.8
sgRNA knockout: sgERN1, 10000 nM	24.86
sgRNA knockout: sgHSF1, 10 nM	116
sgRNA knockout: sgHSF1, 100 nM	112
sgRNA knockout: sgHSF1, 1000 nM	79.6
sgRNA knockout: sgHSF1, 10000 nM	29.6
sgRNA knockout: sgHSF2, 10 nM	75.3
sgRNA knockout: sgHSF2, 100 nM	102
sgRNA knockout: sgHSF2, 1000 nM	80.1
sgRNA knockout: sgHSF2, 10000 nM	27.6
sgRNA knockout: sgKEAP1, 10 nM	109
sgRNA knockout: sgKEAP1, 100 nM	103
sgRNA knockout: sgKEAP1, 1000 nM	107
sgRNA knockout: sgKEAP1, 10000 nM	26.5
sgRNA knockout: sgNFE2L2, 10 nM	109
sgRNA knockout: sgNFE2L2, 100 nM	67.2
sgRNA knockout: sgNFE2L2, 1000 nM	75.1
sgRNA knockout: sgNFE2L2, 10000 nM	29.1
sgRNA knockout: sgSLC35F2, 10 nM	93
sgRNA knockout: sgSLC35F2, 100 nM	91
sgRNA knockout: sgSLC35F2, 1000 nM	80
sgRNA knockout: sgSLC35F2, 10000 nM	31.4
sgRNA knockout: sgXBP1, 10 nM	91.4
sgRNA knockout: sgXBP1, 100 nM	92.9
sgRNA knockout: sgXBP1, 1000 nM	77.4
sgRNA knockout: sgXBP1, 10000 nM	24.2

COC(=O)Nc1nc2cc(C(=O)c3ccccc3)ccc2[nH]1 [Mebendazole]
Conditions	relative cell number
sgRNA knockout: sgATF3, 10 nM	93.9
sgRNA knockout: sgATF3, 100 nM	83.6
sgRNA knockout: sgATF3, 1000 nM	39
sgRNA knockout: sgATF3, 10000 nM	23.4
sgRNA knockout: sgATF4, 10 nM	103
sgRNA knockout: sgATF4, 100 nM	69.3
sgRNA knockout: sgATF4, 1000 nM	32.9
sgRNA knockout: sgATF4, 10000 nM	22.8
sgRNA knockout: sgATF6, 10 nM	102
sgRNA knockout: sgATF6, 100 nM	74
sgRNA knockout: sgATF6, 1000 nM	34.9
sgRNA knockout: sgATF6, 10000 nM	22.7
sgRNA knockout: sgATG7, 10 nM	99
sgRNA knockout: sgATG7, 100 nM	70.7
sgRNA knockout: sgATG7, 1000 nM	30.6
sgRNA knockout: sgATG7, 10000 nM	22.5
sgRNA knockout: sgERN1, 10 nM	97.2
sgRNA knockout: sgERN1, 100 nM	89
sgRNA knockout: sgERN1, 1000 nM	42
sgRNA knockout: sgERN1, 10000 nM	18
sgRNA knockout: sgHSF1, 10 nM	86.3
sgRNA knockout: sgHSF1, 100 nM	64.8
sgRNA knockout: sgHSF1, 1000 nM	30.1
sgRNA knockout: sgHSF1, 10000 nM	21.6
sgRNA knockout: sgHSF2, 10 nM	93.2
sgRNA knockout: sgHSF2, 100 nM	85.3
sgRNA knockout: sgHSF2, 1000 nM	29.6
sgRNA knockout: sgHSF2, 10000 nM	21.8
sgRNA knockout: sgKEAP1, 10 nM	110
sgRNA knockout: sgKEAP1, 100 nM	62.7
sgRNA knockout: sgKEAP1, 1000 nM	27
sgRNA knockout: sgKEAP1, 10000 nM	16
sgRNA knockout: sgNFE2L2, 10 nM	101
sgRNA knockout: sgNFE2L2, 100 nM	60.1
sgRNA knockout: sgNFE2L2, 1000 nM	30.6
sgRNA knockout: sgNFE2L2, 10000 nM	20.8
sgRNA knockout: sgSLC35F2, 10 nM	86.7
sgRNA knockout: sgSLC35F2, 100 nM	78.5
sgRNA knockout: sgSLC35F2, 1000 nM	29.9
sgRNA knockout: sgSLC35F2, 10000 nM	25.3
sgRNA knockout: sgXBP1, 10 nM	87.85
sgRNA knockout: sgXBP1, 100 nM	64
sgRNA knockout: sgXBP1, 1000 nM	30.8
sgRNA knockout: sgXBP1, 10000 nM	19.8
